Test results: publication PMC5506657, “Improvement in phosphate acquisition and utilization by a secretory purple acid phosphatase (OsPAP21b) in rice” (Plant Biotechnology Journal, 2017)

Protein sequences, listed by entry. Tags and fused reporters are not part of them. Lines headed by an entry give the natural chain unless they say otherwise; changes in a name come on top.
UniProt Q6Z156: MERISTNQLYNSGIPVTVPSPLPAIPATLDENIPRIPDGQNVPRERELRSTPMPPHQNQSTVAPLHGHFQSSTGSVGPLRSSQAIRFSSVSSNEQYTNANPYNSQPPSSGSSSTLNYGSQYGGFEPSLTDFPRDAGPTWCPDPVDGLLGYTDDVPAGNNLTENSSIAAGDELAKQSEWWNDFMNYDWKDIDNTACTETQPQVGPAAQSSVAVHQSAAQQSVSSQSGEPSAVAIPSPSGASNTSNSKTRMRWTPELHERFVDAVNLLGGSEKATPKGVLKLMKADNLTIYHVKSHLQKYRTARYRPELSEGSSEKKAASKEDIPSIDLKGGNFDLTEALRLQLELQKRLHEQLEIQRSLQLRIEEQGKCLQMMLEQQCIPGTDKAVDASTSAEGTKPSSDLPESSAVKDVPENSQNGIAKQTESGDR

How the values were obtained:
[1] = molecular target: OsPHR2 (Oryza sativa (rice)) (UniProt Q6Z156); test: competition with a labelled probe; details: 400-fold excess unlabelled promoter as self competitor, specificity confirmed; 30 mM KCl, 15 mM HEPES pH 8.0, 0.02 mM DTT, 1 mM MgCl2, 0.2 mM EDTA, 0.6% glycerol, 1 ug poly(dI-dC) in 30 ul; 20 °C, 30 min; 4% gel; recombinant protein; residues 1-426; protein details: 6xHis (pET28a); label: 32P ([alpha-32P]CTP, Megaprime labeling); probe letters rebuilt from the primers and the genome
[2] = molecular target: OsPHR2 (Oryza sativa (rice)) (UniProt Q6Z156); test: EMSA; details: 10 ng probe, 1.5 ug protein, 1 ug poly(dI-dC), 1 mM Mg2+; 30 mM KCl, 15 mM HEPES pH 8.0, 0.02 mM DTT, 1 mM MgCl2, 0.2 mM EDTA, 0.6% glycerol, 1 ug poly(dI-dC) in 30 ul; 20 °C, 30 min; 4% gel; recombinant protein; residues 1-426; protein details: 6xHis (pET28a); label: 32P ([alpha-32P]CTP, Megaprime labeling); probe letters rebuilt from the primers and the genome

AAAAATCCCTGCATCACGCAGCAAAATGCCAACCCCAGCCTACCTATCTCCTTCCTTCCTCCTCCCCACCTCCACCACCACCACCACCGCACACGGCGGCCTCCTCCTCCTCTCCGGCAACCACCGCCGACGATGTCGTCCACGCCACATGCCAGGTGCACGCACGCACGCACGACAGCAAGAGAGAGAGCGGCAAGAAACACCATGGCATATCTCCGAGGATATGCCCTAATCCAAAGTCTTCCTAATTGTTATTAAAATCCTAATGACGTGCAATTATGCTCTCCTCTCCCAGGTCGTCTCCTCCTCCGGGCTCAGCCCAGGCTGGCCACCGATGATGATGGCGACGGCCGCGATGGCGGCGAGCTCGTGCGATCGAGGCGACACGCGTAAGAAGCTGCAGATAACTGTAGTTTTCCTCGT (double strand) [OsPAP21b promoter 423 bp]
binding result [1]: binds | binding result [2]: binds
